According to patent publication US4540702A, “2-Substituted-4-thiazolidones” (Kureha Kagaku Kogyo Kabushiki Kaisha, priority 1979, dated 1985):
For part of these data: The name of at least one read-out is uncertain. For part of these data: At least one structure is not confirmed: it was looked up by name or label, or the drawing left a doubt.

Columns and labels:
Type in all cases: in vivo
[1] = Improvement of blood stream, test of gaseous hydrogen clearance (reserpine model); conditions: reserpine 5 mg/kg i.p. treated rat, compound 50 mg/kg intravenous
[2] = Effect against peptic ulcer formed by ligating the pylorus (Shay et al.); conditions: pylorus-ligated rat, 100 mg/kg intraperitoneal, vs control group
Protocol: Each male rat of a group consisting of 10 animals, weighing 180 to 200 g, after 48 hours' fasting, was subjected to ligature at its pyloric part under the anesthesia by ether following the method of Shay et al. (refer to Gastroenterology, Vol. 5, 43, 1945). Just after the ligature, each of the present compounds suspended in an aqueous physiological saline solution was injected into each rat's abdominal cavity at a dose rate of 100 mg/kg body weight, the control group being injected with an aqueous physiological saline solution. After keeping the rats at a state of fasting without taking water for 15 hours, the rats were sacrificed by ether and their stomachs were removed to examine under a microscope for autopsy. The longitudinal and horizontal lengths of the thus formed peptic ulcer were determined and expressed by the product (mm^2), and the total sum of the products was represented as the coefficient of ulcer.
The rate of suppression of peptic ulcer (%) is expressed by the ratio of the difference between the coefficient of peptic ulcer of control group and the coefficient of peptic ulcer of the treated group to the coefficient of peptic ulcer of control group multiplied by 100.

[3] = Effect on duodenal peptic ulcer induced by acetic acid (Okabe et al.); conditions: acetic acid duodenal ulcer rat, oral 100 mg/kg/day, three times a day for 10 days, vs control group
Source text: The inventors of the present invention, taking into account of these situations, added to the method of evaluation the effect of accelerating the curation of the peptic ulcer by orally administering the present compound and a commercialized anti-peptic medicine, respectively to rats to which duodenal peptic ulcer due to acetic acid (refer to Okabe, 1971) considered to be most closely resembling to human peptic ulcer has been artificially formed.
Following the method of Okabe et al. (refer to Amer. J. Dig. Dis., Vol. 16, 277, 1971), each male rat weighing 240 to 260 g of a group consisting of 15 animals was subjected to laparotomy under ether-anesthesia and a metal circular frame was put on a part of the serosa at the distance of 5 to 7 mm from the duodenal pylorus and 0.06 ml of glacial acetic acid was poured on the circular part of the frame. After 30 seconds, the acetic liquid was removed and the frame was also removed. […] The longitudinal and horizontal lengths of the thus formed ulcer were determined and the product of the lengths expressed by mm^2 was recorded as the coefficient of peptic ulcer. The rate of curation of peptic ulcer, in this Example is calculated by the same manner as the rate of suppression of peptic ulcer in Example 5.

Row | SMILES | Amount of blood stream in the gastric mucous membrane [1] | Rate of suppression of peptic ulcer [2] [%] | Rate of curation of peptic ulcer [3] [%]
1 | COc1cccc(C2NC(=O)CS2)c1OC (stereo not drawn) [2-(2,3-dimethoxyphenyl)-4-thiazolidone] | the blood stream began to increase and returned to the normal state | – | –
2 | CC(C)=CCCC(C)=CCCC(C)=CCCC(=O)OCC=C(C)CCC=C(C)C [Gefarnate, 3,7dimethyl-2,6-octadienyl 5,9,13trimethyl-4,8,12-tetradecatrienoate, reference compound] | – | 10.9 | 22.7
